The other results are listed elsewhere or left out.

Chains of the proteins cited; added tags and fusions are not shown.
UniProt Q0JBA9, entry or part of it: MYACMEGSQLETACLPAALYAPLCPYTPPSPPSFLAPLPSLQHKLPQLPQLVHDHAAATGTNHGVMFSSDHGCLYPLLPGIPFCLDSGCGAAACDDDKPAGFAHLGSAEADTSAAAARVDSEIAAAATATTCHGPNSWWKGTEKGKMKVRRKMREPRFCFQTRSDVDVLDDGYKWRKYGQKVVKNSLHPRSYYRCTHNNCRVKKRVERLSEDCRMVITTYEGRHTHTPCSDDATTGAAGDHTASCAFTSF

For the assay, the target named is OsWRKY34 (Oryza sativa, UniProt Q0JBA9 1-250). In words: protein-binding microarray (RPBM); PBS, 2% BSA, 51.3 ng/ul salmon testes DNA, 50 uM zinc acetate, 200 nM TF, 25 C, 1 h; high values mean tight binding. The conditions noted are these: protein: recombinant; tags: N-terminal polyhistidine and DsRed monomer fusion (pET32a); label: CyDye5-dUTP incorporated in the synthesized complementary strand; 3' TTTTT single-stranded linker to array surface; dsDNA, one strand shown. The gist of the method:
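A custom Agilent array was converted to double-stranded form by primer extension with Cy5-dUTP and blocked with 2% BSA. Protein at 200 nM in PBS with 2% BSA, salmon testes DNA and 50 µM zinc acetate was applied for 1 h at 25 °C, followed by washing. The proteins were polyhistidine–DsRed N-terminal fusions of transcription factors, expressed in E. coli BL21-CodonPlus and Ni–NTA-purified. The binding signal is per-feature fluorescence intensity (arbitrary units) from an Axon 4000B scanner.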
As for “TGCACCGAGTCCCGGGGTCATTCTCCCGTTGTGTTTGTTGCGGAGTCACCTAGTGCAG”, the binding signal is 8590 fluorescence intensity (a.u.).

With “GCATCTCTCTCGGCCTCTAGACTTTCTTTTTGGGCCTGAACGGAGTCACCTAGTGCAG”, the binding signal is 9600 fluorescence intensity (a.u.).

With “GCTCAAACCTGGACCTGTTTGATCATGGCGTCAGTGCACACGGAGTCACCTAGTGCAG”, the binding signal was 8360 fluorescence intensity (a.u.).

Take “ATCTCTTAACCTTTTTCTTATTACCAAACATGCTAACGGTCGGAGTCACCTAGTGCAG”: the binding signal was 8030 fluorescence intensity (a.u.).

“TTTTGTTTCCGACTTTATCGTTTCCAATTTCGTTTCCAAGCGGAGTCACCTAGTGCAG”: the binding signal is 9580 fluorescence intensity (a.u.).

On to “TTCAGTTTGTCAGATCATCTGTCCTTCTACCTTCTTTGCACGGAGTCACCTAGTGCAG”, for which the binding signal was 8600 fluorescence intensity (a.u.).

Turning to “CACCTCCGTTCCATGAGCTCCACACTCATCATCCACAGCACGGAGTCACCTAGTGCAG”, the binding signal is 9230 fluorescence intensity (a.u.).

Turning to “ACTCGCTTTCTCTCTCTCGCGTTGCTTCCTACCGAAATCTCGGAGTCACCTAGTGCAG”, the binding signal is 14100 fluorescence intensity (a.u.).

For “CACGTACACGCCTCTTTCCTTTACTCTTCTTCTTCTTTCTCGGAGTCACCTAGTGCAG”, the binding signal was 10300 fluorescence intensity (a.u.).

Turning to “ATTTTCTGTTCCAACTTTTTTTACGGGATTTTCCGATCCGCGGAGTCACCTAGTGCAG”, the binding signal is 8090 fluorescence intensity (a.u.).

With “TTTTGATTTTATTGTCTAGTACCTCTCTTCAACGTATAGCCGGAGTCACCTAGTGCAG”, the binding signal was 8040 fluorescence intensity (a.u.).

“CCGGGCGAGCCGGTCATGTTTGACTCCACACTTGCGCACTCGGAGTCACCTAGTGCAG”: the binding signal is 9770 fluorescence intensity (a.u.).

On to “GGCTGCCCGCTCCTACATCCACATGCATGCTTCACACTGCCGGAGTCACCTAGTGCAG”, for which the binding signal is 8330 fluorescence intensity (a.u.).

Take “TTTTTCTGGTAGTCTTCTCTTCATCTTTCTTTTTTTGGCTCGGAGTCACCTAGTGCAG”: the binding signal is 11400 fluorescence intensity (a.u.).

On to “TTTTGTGAATGTTACTATTTCTGTATCCTGTTTTGTTTTCCGGAGTCACCTAGTGCAG”, for which the binding signal is 11400 fluorescence intensity (a.u.).

In the case of “ACCTTCTTGCAACTTGGCTGCATTACTTTGACAAAGTTTTCGGAGTCACCTAGTGCAG”, the binding signal was 10400 fluorescence intensity (a.u.).

In the case of “CCCCAACGCACTCTTCCCCGCCGCCGTTTCTGCCTCACTTCGGAGTCACCTAGTGCAG”, the binding signal is 13900 fluorescence intensity (a.u.).

In the case of “ATTGCATAACGAACTCTACATGACTGTTTTCCATTTAACTCGGAGTCACCTAGTGCAG”, the binding signal was 10400 fluorescence intensity (a.u.).

“ACCCTGGGAGGCTCTAACCCATTCCTGAATTTTCCATCTTCGGAGTCACCTAGTGCAG”: the binding signal was 8400 fluorescence intensity (a.u.).

As for “CGAATGCCATCGCCATTGCCTGCCTGCCACCATTGACCGCCGGAGTCACCTAGTGCAG”, the binding signal was 11100 fluorescence intensity (a.u.).

On to “GAATCACTATCACTTTAGTCTTAGTAGCTACATATATAAACGGAGTCACCTAGTGCAG”, for which the binding signal was 8140 fluorescence intensity (a.u.).

For the sequence “CGTCCGTCCGCGCCTCGCTCTACCCGCACTCCTACGGCGGCGGAGTCACCTAGTGCAG”, the binding signal is 8380 fluorescence intensity (a.u.).

As for “CCTTGCCACCCCTACCGGATCCTGGTGTTGTTGGTTCGATCGGAGTCACCTAGTGCAG”, the binding signal is 10200 fluorescence intensity (a.u.).

For “CTTGTCCACCAGCTGCCGAATCACCACCACCATCACAACCCGGAGTCACCTAGTGCAG”, the binding signal is 8120 fluorescence intensity (a.u.).

As for “GCCGTCCGCCATCGCTGCTGACCGCAGCATCCGCAGCCACCGGAGTCACCTAGTGCAG”, the binding signal is 11900 fluorescence intensity (a.u.).

For “TTCAACGTGGTGATTCATTCTCTTCTTTCATGTAATGAAACGGAGTCACCTAGTGCAG”, the binding signal is 8610 fluorescence intensity (a.u.).

In the case of “CGAGCTGCTGATGGCCCCTATGCCACATCTACTATGCATGCGGAGTCACCTAGTGCAG”, the binding signal is 17100 fluorescence intensity (a.u.).

With “CCCATTTGCCATGTCAACGCACCGTACTAATTAATCCTTGCGGAGTCACCTAGTGCAG”, the binding signal was 10200 fluorescence intensity (a.u.).

Consider “TTCCTTTGCTTTCCTATTCTTTAATTAGCCGCGGCCTTCCCGGAGTCACCTAGTGCAG”, for which the binding signal was 10600 fluorescence intensity (a.u.).

For the sequence “TAATTTTCGTCCTTTGCACTGTTCATCTTCAACCTCTGGACGGAGTCACCTAGTGCAG”, the binding signal was 9950 fluorescence intensity (a.u.).

In the case of “CTGAAACCAACATCCAAGTCATCATGTCCAAGATGTCTCCCGGAGTCACCTAGTGCAG”, the binding signal was 8510 fluorescence intensity (a.u.).

Regarding “ACTCAAAACATAATTTTTATTGCTAGTCTTTTCTTCTTCTCGGAGTCACCTAGTGCAG”, the binding signal is 9670 fluorescence intensity (a.u.).

With “GCTGTGATTTTTTTTCTTTCTCACCAGAACAAATCTGGTACGGAGTCACCTAGTGCAG”, the binding signal is 8740 fluorescence intensity (a.u.).

“TTGGTGAGTAGTGGTCGGGTGGGTCCCATTTTTTGCGTGCCGGAGTCACCTAGTGCAG”: the binding signal is 10300 fluorescence intensity (a.u.).

On to “CCCCGGGTAACCTAAAAACCTCAGCTTCCATACCGTTTCCCGGAGTCACCTAGTGCAG”, for which the binding signal is 9600 fluorescence intensity (a.u.).

As for “TCTGGTCTCGCGTCCCATCTCCGATCTCACTTTGCCTCTCCGGAGTCACCTAGTGCAG”, the binding signal is 11800 fluorescence intensity (a.u.).

Take “AATTCTGAAGAATATCTCTTCTTGGCTTATATTTTCCAGTCGGAGTCACCTAGTGCAG”: the binding signal is 8330 fluorescence intensity (a.u.).

For “ATTTTGTTAGACTGGGGATGAGGTTAATTTTTTTCTTGGTCGGAGTCACCTAGTGCAG”, the binding signal was 10900 fluorescence intensity (a.u.).

“TTATTTTTTTTGTCACACTGCACTCACTGGCTGCACGTCACGGAGTCACCTAGTGCAG”: the binding signal is 10100 fluorescence intensity (a.u.).

For “TACGACTTGTTTATCGCCAATTATCGGCATATCTCTTTTTCGGAGTCACCTAGTGCAG”, the binding signal is 12500 fluorescence intensity (a.u.).

Consider “AGTGCGTGGGTTGACGATTTTGCGAAAAAGCCCTCCGGTTCGGAGTCACCTAGTGCAG”, for which the binding signal is 8420 fluorescence intensity (a.u.).

Turning to “AGTTCATTAGTCCTCTTTGTTTCTATGCTTGAACATATTACGGAGTCACCTAGTGCAG”, the binding signal is 10900 fluorescence intensity (a.u.).

Values taken from paper PMC7819943, “Rice protein-binding microarrays: a tool to detect cis-acting elements near promoter regions in rice”.
